Laboratory results reported in article PMC4511362.

Biological target: His-tagged recombinant wild-type leucocyte elastase inhibitor (LEI)
Test: pull-down; His-tagged LEI loaded on His-select cartridge (nickel resin); 100 ug crude extract of HeLa cells loaded, washed, eluted; eluate blotted with anti-PKC zeta; only the target purified

B1: Protein kinase C (PKC) zeta, endogenous in HeLa cells (enzyme, UniProt Q05513 1-592)
chain: MPSRTGPKMEGSGGRVRLKAHYGGDIFITSVDAATTFEELCEEVRDMCRLHQQHPLTLKWVDSEGDPCTVSSQMELEEAFRLARQCRDEGLIIHVFPSTPEQPGLPCPGEDKSIYRRGARRWRKLYRANGHLFQAKRFNRRAYCGQCSERIWGLARQGYRCINCKLLVHKRCHGLVPLTCRKHMDSVMPSQEPPVDDKNEDADLPSEETDGIAYISSSRKHDSIKDDSEDLKPVIDGMDGIKISQGLGLQDFDLIRVIGRGSYAKVLLVRLKKNDQIYAMKVVKKELVHDDEDIDWVQTEKHVFEQASSNPFLVGLHSCFQTTSRLFLVIEYVNGGDLMFHMQRQRKLPEEHARFYAAEICIALNFLHERGIIYRDLKLDNVLLDADGHIKLTDYGMCKEGLGPGDTTSTFCGTPNYIAPEILRGEEYGFSVDWWALGVLMFEMMAGRSPFDIITDNPDMNTEDYLFQVILEKPIRIPRFLSVKASHVLKGFLNKDPKERLGCRPQTGFSDIKSHAFFRSIDWDLLEKKQALPPFQPQITDDYGLDNFDTQFTSEPVQLTPDDEDAIKRIDQSEFEGFEYINPLLLSTEESV
binding: binds

Results are given in words; binding and its absence hold for the method and conditions named. In cells and extracts the contact can be indirect. A result given as binding can be weak or reduced; the word gives no strength.
